# PubChem BioAssay AID1224830 – NIAID | 2016
# Assay: 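Host factors that control LPS-induced TNF expression in human macrophages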 (primary screen)
# Cell system: human THP-1 monocytic leukaemia cells, TNF dual-luciferase reporter clone, PMA-differentiated to macrophage-like cells
# Reagents: siRNA pool against human genes, 50 nM
# Time to read-out: LPS for 4 h, given about 3 days after siRNA transfection
# Conditions: bacterial LPS (TLR4 ligand), 10 ng/ml
# Measured: 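TNF firefly reporter luminescence divided by renilla, normalised to the plate median, then turned into a robust z-score for each replicate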
# Direction: TNF reporter robust z-score: higher = stronger TNF reporter response to LPS
# Call rule: 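Each well counts as active if its z-score is over 2.8 or under -1.5; controls are left without a call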
# In all, the deposit lists about 18,000 reagents; below is a random part of them. About 2,900 of them (16%) were called active. 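Calls are made per well; low scores hint the gene aids the LPS response, high scores that it dampens it.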 Repeated entries: four replicate wells of each siRNA pool.
target gene,TNF reporter robust z-score,outcome
TLR10 (GeneID 81793),0.18,inactive
TLR10 (GeneID 81793),0.86,inactive
TLR10 (GeneID 81793),0.53,inactive
TLR10 (GeneID 81793),0.11,inactive
TMEM45A (GeneID 55076),-0.22,inactive
TMEM45A (GeneID 55076),-0.09,inactive
TMEM45A (GeneID 55076),-0.51,inactive
TMEM45A (GeneID 55076),0.13,inactive
HS3ST2 (GeneID 9956),0.08,inactive
HS3ST2 (GeneID 9956),1.04,inactive
HS3ST2 (GeneID 9956),0.53,inactive
HS3ST2 (GeneID 9956),2.13,inactive
C16orf90 (GeneID 646174),1.44,inactive
C16orf90 (GeneID 646174),2.33,inactive
C16orf90 (GeneID 646174),1.53,inactive
C16orf90 (GeneID 646174),1.89,inactive
UBALD2 (GeneID 283991),-1.13,inactive
UBALD2 (GeneID 283991),-1.12,inactive
UBALD2 (GeneID 283991),-1.06,inactive
UBALD2 (GeneID 283991),0.83,inactive
CHRNB2 (GeneID 1141),-0.19,inactive
CHRNB2 (GeneID 1141),0.67,inactive
CHRNB2 (GeneID 1141),1.95,inactive
CHRNB2 (GeneID 1141),2.84,active
CAMK2D (GeneID 817),5.64,active
CAMK2D (GeneID 817),2.65,inactive
CAMK2D (GeneID 817),-0.24,inactive
CAMK2D (GeneID 817),5.22,active
WASHC5 (GeneID 9897),,inactive
WASHC5 (GeneID 9897),0.28,inactive
WASHC5 (GeneID 9897),0.38,inactive
WASHC5 (GeneID 9897),0.67,inactive
WASHC5 (GeneID 9897),0.13,inactive
ELOVL1 (GeneID 64834),1.87,inactive
ELOVL1 (GeneID 64834),2.01,inactive
ELOVL1 (GeneID 64834),1.59,inactive
ELOVL1 (GeneID 64834),2.78,inactive
OR1D4 (GeneID 653166),0.66,inactive
OR1D4 (GeneID 653166),-0.01,inactive
OR1D4 (GeneID 653166),0.46,inactive
OR1D4 (GeneID 653166),1.05,inactive
PCDHA5 (GeneID 56143),-0.56,inactive
PCDHA5 (GeneID 56143),-1.06,inactive
PCDHA5 (GeneID 56143),-0.14,inactive
PCDHA5 (GeneID 56143),0.49,inactive
C4B (GeneID 721),-0.43,inactive
C4B (GeneID 721),-0.63,inactive
C4B (GeneID 721),-0.45,inactive
C4B (GeneID 721),0.25,inactive
LHX2 (GeneID 9355),6.53,active
LHX2 (GeneID 9355),2.76,inactive
LHX2 (GeneID 9355),5.46,active
LHX2 (GeneID 9355),1.25,inactive
DHCR7 (GeneID 1717),0.74,inactive
DHCR7 (GeneID 1717),0.64,inactive
DHCR7 (GeneID 1717),1.17,inactive
DHCR7 (GeneID 1717),1.09,inactive
ALG10B (GeneID 144245),4.93,active
ALG10B (GeneID 144245),1.21,inactive
ALG10B (GeneID 144245),3.57,active
ALG10B (GeneID 144245),2.63,inactive
SRCAP (GeneID 10847),-0.46,inactive
SRCAP (GeneID 10847),0.97,inactive
SRCAP (GeneID 10847),-0.29,inactive
SRCAP (GeneID 10847),0.94,inactive
AFF1 (GeneID 4299),-1.21,inactive
AFF1 (GeneID 4299),0.18,inactive
AFF1 (GeneID 4299),1.34,inactive
AFF1 (GeneID 4299),1.75,inactive
INSRR (GeneID 3645),-0.41,inactive
INSRR (GeneID 3645),-0.58,inactive
INSRR (GeneID 3645),-0.3,inactive
INSRR (GeneID 3645),-0.16,inactive
TMEM196 (GeneID 256130),-0.64,inactive
TMEM196 (GeneID 256130),-0.39,inactive
TMEM196 (GeneID 256130),-1.01,inactive
TMEM196 (GeneID 256130),-0.31,inactive
CLCN5 (GeneID 1184),-0.16,inactive
CLCN5 (GeneID 1184),-0.39,inactive
CLCN5 (GeneID 1184),0.26,inactive
CLCN5 (GeneID 1184),0.01,inactive
DHX33 (GeneID 56919),0.02,inactive
DHX33 (GeneID 56919),-0.85,inactive
DHX33 (GeneID 56919),-0.37,inactive
DHX33 (GeneID 56919),-0.68,inactive
ABHD1 (GeneID 84696),-0.91,inactive
ABHD1 (GeneID 84696),-1.27,inactive
ABHD1 (GeneID 84696),-1.67,active
ABHD1 (GeneID 84696),-0.22,inactive
APOBR (GeneID 55911),0.33,inactive
APOBR (GeneID 55911),0.09,inactive
APOBR (GeneID 55911),0.07,inactive
APOBR (GeneID 55911),0.25,inactive
CCDC9 (GeneID 26093),-1.45,inactive
CCDC9 (GeneID 26093),-1.39,inactive
CCDC9 (GeneID 26093),-1.7,active
CCDC9 (GeneID 26093),-1.25,inactive
PWWP2B (GeneID 170394),0.09,inactive
PWWP2B (GeneID 170394),-0.07,inactive
PWWP2B (GeneID 170394),-0.91,inactive
PWWP2B (GeneID 170394),-0.92,inactive
TDG (GeneID 6996),-0.55,inactive
TDG (GeneID 6996),-0.67,inactive
TDG (GeneID 6996),0.43,inactive
TDG (GeneID 6996),0.06,inactive
LRIG1 (GeneID 26018),-0.78,inactive
LRIG1 (GeneID 26018),-0.67,inactive
LRIG1 (GeneID 26018),-0.53,inactive
LRIG1 (GeneID 26018),-0.87,inactive
TMEM164 (GeneID 84187),0.82,inactive
TMEM164 (GeneID 84187),2.68,inactive
TMEM164 (GeneID 84187),1.51,inactive
TMEM164 (GeneID 84187),2.21,inactive
